Test results taken from paper PMC12103576.
Results are given in words; binding and its absence hold for the method and conditions named. For part of these data: Binding seen in cells or lysates may run through a third protein. Some results given as binding are weak or reduced against the parent protein; the word gives no strength.

Chains of the proteins cited; added tags and fusions are not shown. Residues count along the entry.
UniProt Q13467, residues 27-585: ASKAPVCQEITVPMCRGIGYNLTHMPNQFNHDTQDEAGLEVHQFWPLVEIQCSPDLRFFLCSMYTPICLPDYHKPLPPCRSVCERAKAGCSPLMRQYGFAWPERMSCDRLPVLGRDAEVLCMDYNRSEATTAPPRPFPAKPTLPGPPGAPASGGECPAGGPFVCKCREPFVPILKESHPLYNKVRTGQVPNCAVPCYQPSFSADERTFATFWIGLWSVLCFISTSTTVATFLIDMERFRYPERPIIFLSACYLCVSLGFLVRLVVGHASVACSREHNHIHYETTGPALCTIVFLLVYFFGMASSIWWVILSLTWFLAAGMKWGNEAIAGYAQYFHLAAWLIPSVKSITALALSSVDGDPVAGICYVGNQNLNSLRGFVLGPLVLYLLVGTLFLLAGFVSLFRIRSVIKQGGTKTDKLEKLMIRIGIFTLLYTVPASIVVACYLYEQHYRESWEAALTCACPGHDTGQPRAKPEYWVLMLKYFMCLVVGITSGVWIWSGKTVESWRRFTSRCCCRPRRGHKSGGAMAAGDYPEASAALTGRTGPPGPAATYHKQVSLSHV
UniProt O75581, residues 20-1613: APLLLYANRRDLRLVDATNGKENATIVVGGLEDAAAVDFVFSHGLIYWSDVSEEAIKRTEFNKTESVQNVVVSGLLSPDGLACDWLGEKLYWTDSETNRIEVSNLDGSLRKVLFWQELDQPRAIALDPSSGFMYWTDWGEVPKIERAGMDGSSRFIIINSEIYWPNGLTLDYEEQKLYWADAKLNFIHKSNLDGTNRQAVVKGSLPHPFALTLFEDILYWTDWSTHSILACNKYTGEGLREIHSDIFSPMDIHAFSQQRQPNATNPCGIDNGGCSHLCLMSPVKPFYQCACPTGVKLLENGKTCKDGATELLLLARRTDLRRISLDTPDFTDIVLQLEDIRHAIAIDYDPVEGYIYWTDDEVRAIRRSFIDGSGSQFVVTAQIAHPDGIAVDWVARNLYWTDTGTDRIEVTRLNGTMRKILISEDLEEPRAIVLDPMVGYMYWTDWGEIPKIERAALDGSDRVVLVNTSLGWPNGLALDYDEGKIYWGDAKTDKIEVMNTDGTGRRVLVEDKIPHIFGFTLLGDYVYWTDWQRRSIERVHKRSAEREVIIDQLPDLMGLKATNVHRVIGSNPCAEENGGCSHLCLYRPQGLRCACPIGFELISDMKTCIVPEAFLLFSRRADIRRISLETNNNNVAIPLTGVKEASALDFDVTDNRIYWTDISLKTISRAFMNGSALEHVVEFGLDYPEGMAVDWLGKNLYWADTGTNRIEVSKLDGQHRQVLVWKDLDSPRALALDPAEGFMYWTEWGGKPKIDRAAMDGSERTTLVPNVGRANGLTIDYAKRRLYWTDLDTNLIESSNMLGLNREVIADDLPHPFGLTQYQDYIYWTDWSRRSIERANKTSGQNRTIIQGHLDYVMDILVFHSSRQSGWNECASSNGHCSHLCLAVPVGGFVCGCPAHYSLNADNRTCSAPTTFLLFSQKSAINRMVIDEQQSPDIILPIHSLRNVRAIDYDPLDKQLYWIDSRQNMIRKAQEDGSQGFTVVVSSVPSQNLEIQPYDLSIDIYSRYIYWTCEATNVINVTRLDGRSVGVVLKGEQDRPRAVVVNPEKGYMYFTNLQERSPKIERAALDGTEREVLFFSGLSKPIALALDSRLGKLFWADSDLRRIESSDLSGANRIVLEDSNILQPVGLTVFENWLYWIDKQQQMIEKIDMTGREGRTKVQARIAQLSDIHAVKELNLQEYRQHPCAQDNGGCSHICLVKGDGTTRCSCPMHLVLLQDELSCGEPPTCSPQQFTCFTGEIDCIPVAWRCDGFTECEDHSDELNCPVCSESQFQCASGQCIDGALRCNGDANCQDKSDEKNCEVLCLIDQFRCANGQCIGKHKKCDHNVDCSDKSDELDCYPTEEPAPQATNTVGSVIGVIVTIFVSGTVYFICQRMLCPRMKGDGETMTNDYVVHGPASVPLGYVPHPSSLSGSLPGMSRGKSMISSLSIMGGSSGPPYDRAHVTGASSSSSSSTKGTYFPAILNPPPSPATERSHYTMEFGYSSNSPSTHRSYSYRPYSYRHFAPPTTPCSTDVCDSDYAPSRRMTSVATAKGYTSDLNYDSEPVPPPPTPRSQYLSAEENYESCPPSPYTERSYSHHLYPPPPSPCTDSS
UniProt P56704, residues 19-352: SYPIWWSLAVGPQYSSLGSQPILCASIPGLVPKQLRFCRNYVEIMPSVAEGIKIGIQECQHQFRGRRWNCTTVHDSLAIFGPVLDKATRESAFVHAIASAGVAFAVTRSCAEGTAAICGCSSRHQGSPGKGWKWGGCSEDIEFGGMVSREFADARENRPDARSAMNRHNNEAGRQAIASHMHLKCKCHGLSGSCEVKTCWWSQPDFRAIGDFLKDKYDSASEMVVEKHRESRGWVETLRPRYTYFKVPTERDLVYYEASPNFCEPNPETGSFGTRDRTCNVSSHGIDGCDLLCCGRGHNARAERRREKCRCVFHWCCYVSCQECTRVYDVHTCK

Experiments:
SNAP-FZD5 (human) = SNAP-FZD5 (human) (UniProt Q13467); assay: single-molecule tracking (TIRF, spatial confinement analysis); 100 nM recombinant WNT added to live CHO-K1 cells with SNAP-FZD5 and Halo-LRP6; confinement of each receptor read out, 37 °C; only the binder purified
FLAG-LRP6-Venus (human) = FLAG-LRP6-Venus (human) (UniProt O75581); assay: FRET or BRET; kinetic NanoBRET (ΔBRET) in live HEK293 or ΔDVL1-3 cells, Nluc donor and Venus acceptor co-transfected with MESD, stimulated with 1000 ng/ml WNT-3A, 37 °C, HBSS + 0.1% BSA

Row | Molecule | binding (SNAP-FZD5 (human)) | binding (FLAG-LRP6-Venus (human))
1 | human WNT-3A (from UniProt P56704 19-352) (ligand) | binds | 
2 | β2-adrenoceptor-Nluc (from UniProt P07550 1-413) (receptor) |  | no binding
3 | human WNT-16B (ligand, UniProt Q9UBV4-1 30-365) NWMWLGIASFGVPEKLGCANLPLNSRQKELCKRKPYLLPSIREGARLGIQECGSQFRHERWNCMITAAATTAPMGASPLFGYELSSGTKETAFIYAVMAAGLVHSVTRSCSAGNMTECSCDTTLQNGGSASEGWHWGGCSDDVQYGMWFSRKFLDFPIGNTTGKENKVLLAMNLHNNEAGRQAVAKLMSVDCRCHGVSGSCAVKTCWKTMSSFEKIGHLLKDKYENSIQISDKTKRKMRRREKDQRKIPIHKDDLLYVNKSPNYCVEDKKLGIPGTQGRECNRTSEGADGCNLLCCGRGYNTHVVRHVERCECKFIWCCYVRCRRCESMTDVHTCK | binds | 
